Experimental data: article PMC8632983
Results are given in words; binding and its absence hold for the method and conditions named. In cells and extracts the contact can be indirect. Some binding calls cover weakened binding; strength is not graded here.

Tests used:
[1] = biological target: T1, SKI family transcriptional corepressor 1 (SKOR1) (mouse (endogenous in 3T3-L1 adipocytes and AML12 cells)) (UniProt Q8BX46); assay: co-IP; reciprocal IP with anti-SKOR1 or anti-SMAD6 antibody from RIPA lysates of 3T3-L1 adipocytes or AML12 cells; Protein A/G agarose beads, overnight at 4 °C; beads washed thrice with ice-cold PBS; immunoblot
T1 sequence: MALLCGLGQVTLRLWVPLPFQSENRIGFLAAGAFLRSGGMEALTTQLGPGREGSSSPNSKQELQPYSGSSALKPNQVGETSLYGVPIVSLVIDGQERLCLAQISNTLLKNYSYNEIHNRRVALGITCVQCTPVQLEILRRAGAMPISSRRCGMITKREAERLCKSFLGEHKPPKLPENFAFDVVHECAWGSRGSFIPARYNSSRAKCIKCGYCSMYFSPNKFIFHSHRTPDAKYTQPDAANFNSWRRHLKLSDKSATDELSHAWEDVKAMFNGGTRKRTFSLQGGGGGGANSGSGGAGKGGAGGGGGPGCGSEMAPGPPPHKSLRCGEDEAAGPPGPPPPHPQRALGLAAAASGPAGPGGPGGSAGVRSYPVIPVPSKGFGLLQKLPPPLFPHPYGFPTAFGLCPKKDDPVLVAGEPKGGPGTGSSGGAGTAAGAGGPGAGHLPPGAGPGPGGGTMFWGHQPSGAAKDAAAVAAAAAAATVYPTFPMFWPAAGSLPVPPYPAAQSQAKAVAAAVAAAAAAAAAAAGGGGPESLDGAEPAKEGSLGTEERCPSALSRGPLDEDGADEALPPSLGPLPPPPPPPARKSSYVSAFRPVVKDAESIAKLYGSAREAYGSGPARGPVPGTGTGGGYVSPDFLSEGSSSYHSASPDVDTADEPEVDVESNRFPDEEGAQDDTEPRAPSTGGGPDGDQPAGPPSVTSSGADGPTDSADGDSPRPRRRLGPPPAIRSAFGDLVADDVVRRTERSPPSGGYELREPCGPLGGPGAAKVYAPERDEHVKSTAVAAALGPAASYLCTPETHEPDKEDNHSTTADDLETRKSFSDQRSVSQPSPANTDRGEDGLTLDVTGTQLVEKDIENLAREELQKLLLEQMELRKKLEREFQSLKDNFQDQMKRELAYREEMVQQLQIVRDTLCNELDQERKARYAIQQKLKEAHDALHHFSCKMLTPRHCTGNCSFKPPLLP

[2] = biological target: T2, SMAD family member 6 (SMAD6) (mouse (endogenous in 3T3-L1 adipocytes and AML12 cells)) (UniProt O35182); assay: as above
T2 sequence: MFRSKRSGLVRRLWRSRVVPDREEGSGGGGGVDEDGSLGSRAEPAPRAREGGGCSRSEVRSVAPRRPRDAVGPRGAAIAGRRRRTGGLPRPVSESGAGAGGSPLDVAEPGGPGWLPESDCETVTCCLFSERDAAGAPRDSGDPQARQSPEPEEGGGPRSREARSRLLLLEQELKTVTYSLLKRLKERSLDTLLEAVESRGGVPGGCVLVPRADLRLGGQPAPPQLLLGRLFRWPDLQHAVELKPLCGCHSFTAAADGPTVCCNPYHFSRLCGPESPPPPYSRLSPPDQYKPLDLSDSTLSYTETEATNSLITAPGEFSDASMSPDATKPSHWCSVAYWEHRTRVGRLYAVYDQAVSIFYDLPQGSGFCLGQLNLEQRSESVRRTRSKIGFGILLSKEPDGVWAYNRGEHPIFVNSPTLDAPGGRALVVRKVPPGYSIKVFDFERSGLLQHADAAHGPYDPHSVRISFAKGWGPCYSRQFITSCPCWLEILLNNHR

B1: SMAD family member 6 (SMAD6) (protein, UniProt O35182 1-495)
chain: T2 sequence
Q: Which binding [1] does the source give for B1 here?
A: binds

B2: SKI family transcriptional corepressor 1 (SKOR1) (protein, UniProt Q8BX46 1-964)
chain: T1 sequence
Q: B2 was tested. Which binding [2] did it give?
A: binds
